This passage reports binding results from doi:10.1101/2022.05.05.490787.

The chains behind the UniProt entries cited, without tags or fusion partners. Residues count along the entry.
UniProt Q8IX90, whole entry: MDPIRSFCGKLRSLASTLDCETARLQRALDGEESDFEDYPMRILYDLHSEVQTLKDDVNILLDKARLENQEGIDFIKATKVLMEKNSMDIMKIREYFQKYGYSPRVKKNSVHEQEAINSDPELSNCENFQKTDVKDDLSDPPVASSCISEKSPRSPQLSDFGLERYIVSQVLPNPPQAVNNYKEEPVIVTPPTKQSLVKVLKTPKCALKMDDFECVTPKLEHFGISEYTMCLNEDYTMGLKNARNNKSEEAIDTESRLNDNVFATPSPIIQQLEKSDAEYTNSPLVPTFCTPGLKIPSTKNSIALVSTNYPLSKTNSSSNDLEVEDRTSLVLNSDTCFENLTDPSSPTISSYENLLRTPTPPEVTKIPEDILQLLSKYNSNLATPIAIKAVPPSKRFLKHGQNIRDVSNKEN
UniProt Q96BD8, whole entry: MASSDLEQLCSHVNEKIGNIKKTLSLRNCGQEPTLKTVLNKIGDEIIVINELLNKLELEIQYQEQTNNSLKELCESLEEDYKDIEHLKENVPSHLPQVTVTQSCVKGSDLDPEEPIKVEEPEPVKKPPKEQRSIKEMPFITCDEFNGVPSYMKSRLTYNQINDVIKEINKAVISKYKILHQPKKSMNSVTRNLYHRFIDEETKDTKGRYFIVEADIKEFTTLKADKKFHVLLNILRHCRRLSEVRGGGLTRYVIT
UniProt P02769, 25-607: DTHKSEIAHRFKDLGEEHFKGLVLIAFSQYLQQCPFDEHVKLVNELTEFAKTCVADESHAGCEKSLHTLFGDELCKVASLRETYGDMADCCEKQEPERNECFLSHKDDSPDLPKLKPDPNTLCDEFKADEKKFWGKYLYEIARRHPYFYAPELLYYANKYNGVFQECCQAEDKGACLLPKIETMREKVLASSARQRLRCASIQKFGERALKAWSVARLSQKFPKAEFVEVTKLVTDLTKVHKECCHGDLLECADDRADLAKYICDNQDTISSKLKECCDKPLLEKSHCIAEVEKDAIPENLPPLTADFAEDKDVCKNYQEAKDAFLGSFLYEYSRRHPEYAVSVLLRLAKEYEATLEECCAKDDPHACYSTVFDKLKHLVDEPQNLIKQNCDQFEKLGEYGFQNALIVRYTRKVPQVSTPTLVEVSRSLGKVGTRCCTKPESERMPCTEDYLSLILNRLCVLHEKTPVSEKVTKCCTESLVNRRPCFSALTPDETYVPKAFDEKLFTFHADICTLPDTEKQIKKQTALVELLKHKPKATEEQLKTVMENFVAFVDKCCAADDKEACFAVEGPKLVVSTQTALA

Like-named read-outs stand apart in the source and are kept apart here. These are yes or no findings as the source states them, for the method shown. For some assays here: In cells and extracts the contact can be indirect. Some results given as binding are weak or reduced against the parent protein; the word gives no strength. For some assays here: Tags and fused reporters may be left off the sequences shown.

In experiment [1] the target is T1, GST-tagged Cdt1^92-546 (human) (UniProt Q9H211).
T1 sequence: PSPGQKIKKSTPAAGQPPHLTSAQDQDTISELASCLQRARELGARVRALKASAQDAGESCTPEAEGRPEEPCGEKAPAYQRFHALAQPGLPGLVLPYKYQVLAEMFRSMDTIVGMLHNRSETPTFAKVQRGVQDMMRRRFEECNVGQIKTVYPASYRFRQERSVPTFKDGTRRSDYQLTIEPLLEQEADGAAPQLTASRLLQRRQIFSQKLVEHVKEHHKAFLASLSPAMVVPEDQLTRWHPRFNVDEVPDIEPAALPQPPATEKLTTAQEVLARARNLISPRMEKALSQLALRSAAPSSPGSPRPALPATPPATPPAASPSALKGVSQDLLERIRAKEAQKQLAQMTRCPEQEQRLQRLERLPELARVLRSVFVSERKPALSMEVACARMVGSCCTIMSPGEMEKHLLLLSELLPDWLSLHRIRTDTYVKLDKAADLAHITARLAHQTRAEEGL
The experiment in a line: pull-down.

In experiment [2] the target is T2, HA/His-tagged Cdt1 (human) (UniProt Q9H211).
T2 sequence: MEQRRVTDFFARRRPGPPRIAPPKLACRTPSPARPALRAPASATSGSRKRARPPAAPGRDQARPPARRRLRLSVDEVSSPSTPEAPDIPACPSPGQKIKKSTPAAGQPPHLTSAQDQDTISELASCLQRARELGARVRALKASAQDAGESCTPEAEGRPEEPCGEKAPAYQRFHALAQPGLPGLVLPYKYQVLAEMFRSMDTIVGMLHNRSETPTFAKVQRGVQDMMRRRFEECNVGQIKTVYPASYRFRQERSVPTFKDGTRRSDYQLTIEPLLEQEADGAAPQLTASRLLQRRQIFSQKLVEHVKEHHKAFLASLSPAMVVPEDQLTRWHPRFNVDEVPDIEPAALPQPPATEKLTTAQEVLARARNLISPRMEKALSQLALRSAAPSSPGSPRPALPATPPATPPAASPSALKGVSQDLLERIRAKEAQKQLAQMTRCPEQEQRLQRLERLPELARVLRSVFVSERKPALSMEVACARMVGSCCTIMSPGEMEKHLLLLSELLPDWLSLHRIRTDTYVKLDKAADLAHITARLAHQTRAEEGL
The experiment in a line: pull-down.

The target in experiment [3] is T3, Cdt1 (endogenous) (human (endogenous in HeLa)) (UniProt Q9H211).
T3 sequence: T2 sequence
Nature of the experiment: co-IP.

In experiment [4] the target is T4, HA-tagged Cdt1-WT (human) (UniProt Q9H211).
T4 sequence: T2 sequence
The experiment in a line: co-IP.

Experiment [5] deals with SKA3 (endogenous) (human (endogenous in HeLa and HEK293T)) (UniProt Q8IX90). The experiment in a line: co-IP.
Experiment [6] concerns the target T5, GFP-tagged Cdt1 (92-546 a. a.) (human) (UniProt Q9H211).
T5 sequence: T1 sequence
The experiment in a line: far-Western, overlay or dot blot.

The target in experiment [7] is T5, GFP-tagged Cdt1 (92-546 a. a.) (human). The experiment in a line: BLI.
For experiment [8] the target is unchanged. Nature of the experiment: SEC.
In experiment [9] the target is SKA3 (endogenous) (human (endogenous in HeLa and HEK293T)) (UniProt Q8IX90). Nature of the experiment: co-IP. The source holds these as a separate data set.
Another experiment concerns the target GFP-SKA1 (UniProt Q96BD8). The experiment in a line: co-IP.

Turning to “SKA3 (endogenous) (from UniProt Q8IX90 1-412)”, the binding result in experiment [1], in experiment [2], in experiment [3] and in [4] was “binds” throughout.

Consider “SKA1 (endogenous) (from UniProt Q96BD8 1-255)”, for which the binding result in experiment [1], in experiment [2], in [5], in [3] and in experiment [4] was “binds” throughout.

In the case of “Ska1 complex assembled by combining equimolar His-tagged SKA1/2 and GST-tagged SKA3 (from UniProt Q96BD8;Q8WVK7;Q8IX90)”, in [6], the binding result is listed as “binds”.

Regarding BSA (from UniProt P02769 25-607), the binding entry in experiment [7] was “no binding”.

As to “dimeric SKA1/SKA2 complex (from UniProt Q96BD8;Q8WVK7)”, the binding entry in experiment [8] is given as “binds”.

B1: Cdt1 (endogenous) (protein, UniProt Q9H211 1-546)
chain: T2 sequence
B1: the binding result (in experiment [9]; with GFP-SKA1) was “binds” throughout.
